Measurements reported in paper PMC10450662.
Results are given in words; binding and its absence hold for the method and conditions named. Binding seen in cells or lysates may run through a third protein. Binding can be weak; no strength is given.

Sequences of proteins named here, by UniProt entry; tags and fusion partners are left off. A change or cut given only in a name is not applied to a line headed by its entry.
UniProt Q07335: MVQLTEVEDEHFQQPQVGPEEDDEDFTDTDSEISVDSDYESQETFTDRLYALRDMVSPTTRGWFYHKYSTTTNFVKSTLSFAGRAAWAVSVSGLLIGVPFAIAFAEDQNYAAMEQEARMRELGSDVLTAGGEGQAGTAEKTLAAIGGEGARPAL
UniProt V5ILY4: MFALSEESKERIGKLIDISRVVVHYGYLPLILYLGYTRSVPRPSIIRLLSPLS

Target: Tom22 of Neurospora crassa with a hexahistidine tag (Neurospora crassa) (UniProt Q07335)
Test: pull-down + SEC; His6-Tom22 held on a nickel-NTA column from outer membrane vesicles of N. crassa GR-107 solubilised in 1% GDN (10 mM MOPS pH 7.0, 50 mM potassium acetate, 50 mM imidazole), eluted with 300 mM imidazole, then Superdex 200 Increase; subunits seen by SDS-PAGE with Coomassie staining

binding: binds
Substance: Tom7 of the Neurospora crassa TOM complex (from UniProt V5ILY4)
